Reference: article PMC7610265
Results are given in words; binding and its absence hold for the method and conditions named. Binding seen in cells or lysates may run through a third protein. Binding can be weak; no strength is given.

Amino acid sequences for entries named in this document (tags omitted). A change or cut given only in a name is not applied to a line headed by its entry.
UniProt Q14145: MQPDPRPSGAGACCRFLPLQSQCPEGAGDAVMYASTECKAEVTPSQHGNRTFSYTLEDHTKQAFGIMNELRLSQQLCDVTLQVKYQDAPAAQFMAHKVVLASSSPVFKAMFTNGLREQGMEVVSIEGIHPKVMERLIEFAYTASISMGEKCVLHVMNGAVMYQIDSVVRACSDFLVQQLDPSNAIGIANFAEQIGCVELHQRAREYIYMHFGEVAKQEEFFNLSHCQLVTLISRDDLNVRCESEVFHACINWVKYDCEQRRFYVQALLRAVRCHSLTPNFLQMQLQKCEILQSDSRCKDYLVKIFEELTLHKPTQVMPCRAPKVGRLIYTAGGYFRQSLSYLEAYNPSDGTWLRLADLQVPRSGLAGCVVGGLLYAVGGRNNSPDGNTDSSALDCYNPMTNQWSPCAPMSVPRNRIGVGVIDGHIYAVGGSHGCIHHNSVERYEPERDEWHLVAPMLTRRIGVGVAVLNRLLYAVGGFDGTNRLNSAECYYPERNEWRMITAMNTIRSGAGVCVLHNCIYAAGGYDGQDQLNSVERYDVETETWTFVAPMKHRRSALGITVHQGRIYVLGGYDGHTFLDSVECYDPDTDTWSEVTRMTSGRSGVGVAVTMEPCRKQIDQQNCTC
UniProt P48436: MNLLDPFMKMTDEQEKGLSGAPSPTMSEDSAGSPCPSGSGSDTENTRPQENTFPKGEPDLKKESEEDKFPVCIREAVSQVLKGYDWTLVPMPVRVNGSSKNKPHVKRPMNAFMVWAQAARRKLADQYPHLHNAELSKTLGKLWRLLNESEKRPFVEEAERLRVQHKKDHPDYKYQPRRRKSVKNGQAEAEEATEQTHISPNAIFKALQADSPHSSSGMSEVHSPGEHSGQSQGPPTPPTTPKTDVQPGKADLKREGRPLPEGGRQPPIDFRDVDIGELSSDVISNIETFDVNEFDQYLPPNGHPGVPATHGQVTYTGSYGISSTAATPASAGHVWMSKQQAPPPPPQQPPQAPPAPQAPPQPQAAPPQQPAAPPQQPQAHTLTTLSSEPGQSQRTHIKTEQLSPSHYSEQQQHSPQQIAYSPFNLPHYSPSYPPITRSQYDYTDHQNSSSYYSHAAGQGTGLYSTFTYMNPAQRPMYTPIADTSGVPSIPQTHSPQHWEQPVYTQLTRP

Columns and labels:
[1] = target: KEAP1 (tag not told for these experiments) (human) (UniProt Q14145); test: co-IP; HEK293T cells expressing Flag-tagged WT SOX9, truncated SOX9 mutants or SOX9 degron deletion mutants
[2] = target: Flag-KEAP1 G333S (lung carcinoma-associated mutant) (human) (UniProt Q14145); test: co-IP; HEK293T cells expressing Flag-tagged WT KEAP1 or lung carcinoma-associated KEAP1 mutants

Flag-SOX9 degron 1 deletion mutant (ΔDeg1) (from UniProt P48436)
binding [1]: binds

SOX9 (HEK293T cells; tag not told for these experiments) (from UniProt P48436 1-509)
binding [2]: binds weakly
